Test [1] concerns the target T1, Transglutaminase 6 (TG6) with a C-terminal Strep2 tag (UniProt O95932).
T1 sequence: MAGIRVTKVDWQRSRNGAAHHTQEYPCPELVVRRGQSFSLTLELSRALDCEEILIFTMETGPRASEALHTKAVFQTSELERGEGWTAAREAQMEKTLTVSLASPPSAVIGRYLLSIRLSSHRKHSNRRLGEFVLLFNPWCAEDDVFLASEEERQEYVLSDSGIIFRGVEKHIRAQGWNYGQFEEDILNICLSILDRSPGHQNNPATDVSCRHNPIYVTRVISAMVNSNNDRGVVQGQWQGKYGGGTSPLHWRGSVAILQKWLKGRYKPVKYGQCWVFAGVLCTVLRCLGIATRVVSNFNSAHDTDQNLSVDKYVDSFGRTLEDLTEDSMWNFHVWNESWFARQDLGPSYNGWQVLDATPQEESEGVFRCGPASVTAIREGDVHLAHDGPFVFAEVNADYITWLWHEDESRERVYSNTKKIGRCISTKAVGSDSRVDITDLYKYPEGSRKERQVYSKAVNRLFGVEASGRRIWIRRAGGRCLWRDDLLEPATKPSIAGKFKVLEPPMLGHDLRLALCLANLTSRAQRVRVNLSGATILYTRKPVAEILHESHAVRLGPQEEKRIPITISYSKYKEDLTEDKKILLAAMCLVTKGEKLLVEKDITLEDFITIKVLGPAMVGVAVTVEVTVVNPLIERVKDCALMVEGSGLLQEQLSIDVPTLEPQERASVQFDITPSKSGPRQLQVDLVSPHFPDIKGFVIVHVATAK
Description: co-IP; lysates of transiently double transfected SH-SY5Y cells; TG6 precipitated with the anti-STREP II-tag antibody, Protein A/G agarose; huntingtin variants detected by blot.

The target of test [2] is Mutant huntingtin exon 1 fragment with 97 glutamines, C-terminal EGFP. Description: co-IP; lysates (soluble fractions) of transiently double transfected SH-SY5Y cells; huntingtin variants precipitated (antibodies named in the methods: mab2166, anti-polyglutamine 1C2, anti-EGFP), Protein A/G agarose; TG6 detected with anti-Strep II antibody.
The target of test [3] is Huntingtin exon 1 fragment with 25 glutamines, C-terminal EGFP. Described as above.

These are yes or no findings as the source states them, for the method shown. In cells and extracts the contact can be indirect. Binding calls can cover weak binding; strength is not graded here. Tags and fused reporters may be left off the sequences shown.

On to “Mutant huntingtin exon 1 fragment with 97 glutamines, C-terminal EGFP (domain or fragment)”, for which the binding entry in test [1] is on record as “binds”.

B1: Transglutaminase 6 (TG6) with a C-terminal Strep2 tag (enzyme, UniProt O95932 1-706)
chain: T1 sequence
Turning to B1, the binding result in test [2] and in test [3] was “binds” each time.

The values above are taken from publication PMC8396294.
